Reference: article PMC2266940
No constants are given. Whether binding was seen depends on the method and setting. In cells and extracts the contact can be indirect. Binding can be weak; no strength is given. For some of these results: Tags and fused reporters may be left off the sequences shown.

Target: human SIN3B (human)
Test: co-IP; COS-7 cells co-transfected with pCMV5 constructs; lysis buffer 250 mM NaCl, 20 mM Na-phosphate, 30 mM Na-pyrophosphate (pH 7.0), 5 mM EDTA, 0.1% NP-40; IP overnight with 1 ug α-hSIN3B, α-ETO, α-MTGR1 or α-MTG16 and protein A-Sepharose; Western blot

| Binder | binding |
| --- | --- |
| MTGR1 (MTG-related protein 1) (protein, UniProt O43439-2 1-575) MPGSPVEVKIQSRSSPPTMPPLPPINPGGPRPVSFTPTALSNGINHSPPTLNGAPSPPQRFSNGPASSTSSALTNQQLPATCGARQLSKLKRFLTTLQQFGNDISPEIGEKVRTLVLALVNSTVTIEEFHCKLQEATNFPLRPFVIPFLKANLPLLQRELLHCARAAKQTPSQYLAQHEHLLLNTSIASPADSSELLMEVHGNGKRPSPERREENSFDRDTIAPEPPAKRVCTISPAPRHSPALTVPLMNPGGQFHPTPPPLQHYTLEDIATSHLYREPNKMLEHREVRDRHHSLGLNGGYQDELVDHRLTEREWADEWKHLDHALNCIMEMVEKTRRSMAVLRRCQESDREELNYWKRRYNENTELRKTGTELVSRQHSPGSADSLSNDSQREFNSRPGTGYVPVEFWKKTEEAVNKVKIQAMSEVQKAVAEAEQKAFEVIATERARMEQTIADVKRQAAEDAFLVINEQEESTENCWNCGRKASETCSGCNIARYCGSFCQHKDWERHHRLCGQNLHGQSPHGQGRPLLPVGRGSSARSADCSVPSPALDKTSATTSRSSTPASVTAIDTNGL | no binding |
| ETO lacking 30 amino-terminal aminoacids (domain or fragment, UniProt Q06455 31-604) RTEKHSTMPDSPVDVKTQSRLTPPTMPPPPTTQGAPRTSSFTPTTLTNGTSHSPTALNGAPSPPNGFSNGPSSSSSSSLANQQLPPACGARQLSKLKRFLTTLQQFGNDISPEIGERVRTLVLGLVNSTLTIEEFHSKLQEATNFPLRPFVIPFLKANLPLLQRELLHCARLAKQNPAQYLAQHEQLLLDASTTSPVDSSELLLDVNENGKRRTPDRTKENGFDREPLHSEHPSKRPCTISPGQRYSPNNGLSYQPNGLPHPTPPPPQHYRLDDMAIAHHYRDSYRHPSHRDLRDRNRPMGLHGTRQEEMIDHRLTDREWAEEWKHLDHLLNCIMDMVEKTRRSLTVLRRCQEADREELNYWIRRYSDAEDLKKGGGSSSSHSRQQSPVNPDPVALDAHREFLHRPASGYVPEEIWKKAEEAVNEVKRQAMTELQKAVSEAERKAHDMITTERAKMERTVAEAKRQAAEDALAVINQQEDSSESCWNCGRKASETCSGCNTARYCGSFCQHKDWEKHHHICGQTLQAQQQGDTPAVSSSVTPNSGAGSPMDTPPAATPRSTTPGTPSTIETTPR | no binding |
| MTG16 (myeloid-transforming gene 16) (protein, UniProt O75081-1 1-653) MPASRLRDRAASSASGSTCGSMSQTHPVLESGLLASAGCSAPRGPRKGGPAPVDRKAKASAMPDSPAEVKTQPRSTPPSMPPPPPAASQGATRPPSFTPHTHREDGPATLPHGRFHGCLKWSMVCLLMNGSSHSPTAINGAPCTPNGFSNGPATSSTASLSTQHLPPACGARQLSKLKRFLTTLQQFGSDISPEIGERVRTLVLGLVNSTLTIEEFHSKLQEATNFPLRPFVIPFLKANLPLLQRELLHCARLAKQTPAQYLAQHEQLLLDASASSPIDSSELLLEVNENGKRRTPDRTKENGSDRDPLHPEHLSKRPCTLNPAQRYSPSNGPPQPTPPPHYRLEDIAMAHHFRDAYRHPDPRELRERHRPLVVPGSRQEEVIDHKLTEREWAEEWKHLNNLLNCIMDMVEKTRRSLTVLRRCQEADREELNHWARRYSDAEDTKKGPAPAAARPRSSSAGPEGPQLDVPREFLPRTLTGYVPEDIWRKAEEAVNEVKRQAMSELQKAVSDAERKAHELITTERAKMERALAEAKRQASEDALTVINQQEDSSESCWNCGRKASETCSGCNAARYCGSFCQHRDWEKHHHVCGQSLQGPTAVVADPVPGPPEAAHSLGPSLPVGAASPSEAGSAGPSRPGSPSPPGPLDTVPR | binds |
| ETO (eight twenty-one) (protein, UniProt Q06455 1-604) MISVKRNTWRALSLVIGDCRKKGNFEYCQDRTEKHSTMPDSPVDVKTQSRLTPPTMPPPPTTQGAPRTSSFTPTTLTNGTSHSPTALNGAPSPPNGFSNGPSSSSSSSLANQQLPPACGARQLSKLKRFLTTLQQFGNDISPEIGERVRTLVLGLVNSTLTIEEFHSKLQEATNFPLRPFVIPFLKANLPLLQRELLHCARLAKQNPAQYLAQHEQLLLDASTTSPVDSSELLLDVNENGKRRTPDRTKENGFDREPLHSEHPSKRPCTISPGQRYSPNNGLSYQPNGLPHPTPPPPQHYRLDDMAIAHHYRDSYRHPSHRDLRDRNRPMGLHGTRQEEMIDHRLTDREWAEEWKHLDHLLNCIMDMVEKTRRSLTVLRRCQEADREELNYWIRRYSDAEDLKKGGGSSSSHSRQQSPVNPDPVALDAHREFLHRPASGYVPEEIWKKAEEAVNEVKRQAMTELQKAVSEAERKAHDMITTERAKMERTVAEAKRQAAEDALAVINQQEDSSESCWNCGRKASETCSGCNTARYCGSFCQHKDWEKHHHICGQTLQAQQQGDTPAVSSSVTPNSGAGSPMDTPPAATPRSTTPGTPSTIETTPR | binds |

Target: human SIN3B (human)
Test: co-IP; COS-7 cells co-transfected with V5-tagged ETO homologues and hSIN3B; IP and Western with α-V5 and α-hSIN3B

| Binder | binding |
| --- | --- |
| MTGR1-V5 (protein, UniProt O43439-2 1-575) MPGSPVEVKIQSRSSPPTMPPLPPINPGGPRPVSFTPTALSNGINHSPPTLNGAPSPPQRFSNGPASSTSSALTNQQLPATCGARQLSKLKRFLTTLQQFGNDISPEIGEKVRTLVLALVNSTVTIEEFHCKLQEATNFPLRPFVIPFLKANLPLLQRELLHCARAAKQTPSQYLAQHEHLLLNTSIASPADSSELLMEVHGNGKRPSPERREENSFDRDTIAPEPPAKRVCTISPAPRHSPALTVPLMNPGGQFHPTPPPLQHYTLEDIATSHLYREPNKMLEHREVRDRHHSLGLNGGYQDELVDHRLTEREWADEWKHLDHALNCIMEMVEKTRRSMAVLRRCQESDREELNYWKRRYNENTELRKTGTELVSRQHSPGSADSLSNDSQREFNSRPGTGYVPVEFWKKTEEAVNKVKIQAMSEVQKAVAEAEQKAFEVIATERARMEQTIADVKRQAAEDAFLVINEQEESTENCWNCGRKASETCSGCNIARYCGSFCQHKDWERHHRLCGQNLHGQSPHGQGRPLLPVGRGSSARSADCSVPSPALDKTSATTSRSSTPASVTAIDTNGL | no binding |
| MTG16-V5 (protein, UniProt O75081 1-653) MPASRLRDRAASSASGSTCGSMSQTHPVLESGLLASAGCSAPRGPRKGGPAPVDRKAKASAMPDSPAEVKTQPRSTPPSMPPPPPAASQGATRPPSFTPHTHREDGPATLPHGRFHGCLKWSMVCLLMNGSSHSPTAINGAPCTPNGFSNGPATSSTASLSTQHLPPACGARQLSKLKRFLTTLQQFGSDISPEIGERVRTLVLGLVNSTLTIEEFHSKLQEATNFPLRPFVIPFLKANLPLLQRELLHCARLAKQTPAQYLAQHEQLLLDASASSPIDSSELLLEVNENGKRRTPDRTKENGSDRDPLHPEHLSKRPCTLNPAQRYSPSNGPPQPTPPPHYRLEDIAMAHHFRDAYRHPDPRELRERHRPLVVPGSRQEEVIDHKLTEREWAEEWKHLNNLLNCIMDMVEKTRRSLTVLRRCQEADREELNHWARRYSDAEDTKKGPAPAAARPRSSSAGPEGPQLDVPREFLPRTLTGYVPEDIWRKAEEAVNEVKRQAMSELQKAVSDAERKAHELITTERAKMERALAEAKRQASEDALTVINQQEDSSESCWNCGRKASETCSGCNAARYCGSFCQHRDWEKHHHVCGQSLQGPTAVVADPVPGPPEAAHSLGPSLPVGAASPSEAGSAGPSRPGSPSPPGPLDTVPR | binds |
| ETO-V5 (protein, UniProt Q06455 1-604) MISVKRNTWRALSLVIGDCRKKGNFEYCQDRTEKHSTMPDSPVDVKTQSRLTPPTMPPPPTTQGAPRTSSFTPTTLTNGTSHSPTALNGAPSPPNGFSNGPSSSSSSSLANQQLPPACGARQLSKLKRFLTTLQQFGNDISPEIGERVRTLVLGLVNSTLTIEEFHSKLQEATNFPLRPFVIPFLKANLPLLQRELLHCARLAKQNPAQYLAQHEQLLLDASTTSPVDSSELLLDVNENGKRRTPDRTKENGFDREPLHSEHPSKRPCTISPGQRYSPNNGLSYQPNGLPHPTPPPPQHYRLDDMAIAHHYRDSYRHPSHRDLRDRNRPMGLHGTRQEEMIDHRLTDREWAEEWKHLDHLLNCIMDMVEKTRRSLTVLRRCQEADREELNYWIRRYSDAEDLKKGGGSSSSHSRQQSPVNPDPVALDAHREFLHRPASGYVPEEIWKKAEEAVNEVKRQAMTELQKAVSEAERKAHDMITTERAKMERTVAEAKRQAAEDALAVINQQEDSSESCWNCGRKASETCSGCNTARYCGSFCQHKDWEKHHHICGQTLQAQQQGDTPAVSSSVTPNSGAGSPMDTPPAATPRSTTPGTPSTIETTPR | binds |
